Consider one substance from paper PMC10589240.

By UniProt entry, the sequences of proteins in these tests, tags left out. Where a name states a change or a piece, a line headed by the entry shows the natural chain unless it says otherwise. Chains listed by the source or under a name are the forms on record and can include a tag or linker.
thyroid hormone receptor interactor protein 12 (TRIP12), endogenous (human (endogenous in HCT116 and HEK293T)) (Q14669, form named): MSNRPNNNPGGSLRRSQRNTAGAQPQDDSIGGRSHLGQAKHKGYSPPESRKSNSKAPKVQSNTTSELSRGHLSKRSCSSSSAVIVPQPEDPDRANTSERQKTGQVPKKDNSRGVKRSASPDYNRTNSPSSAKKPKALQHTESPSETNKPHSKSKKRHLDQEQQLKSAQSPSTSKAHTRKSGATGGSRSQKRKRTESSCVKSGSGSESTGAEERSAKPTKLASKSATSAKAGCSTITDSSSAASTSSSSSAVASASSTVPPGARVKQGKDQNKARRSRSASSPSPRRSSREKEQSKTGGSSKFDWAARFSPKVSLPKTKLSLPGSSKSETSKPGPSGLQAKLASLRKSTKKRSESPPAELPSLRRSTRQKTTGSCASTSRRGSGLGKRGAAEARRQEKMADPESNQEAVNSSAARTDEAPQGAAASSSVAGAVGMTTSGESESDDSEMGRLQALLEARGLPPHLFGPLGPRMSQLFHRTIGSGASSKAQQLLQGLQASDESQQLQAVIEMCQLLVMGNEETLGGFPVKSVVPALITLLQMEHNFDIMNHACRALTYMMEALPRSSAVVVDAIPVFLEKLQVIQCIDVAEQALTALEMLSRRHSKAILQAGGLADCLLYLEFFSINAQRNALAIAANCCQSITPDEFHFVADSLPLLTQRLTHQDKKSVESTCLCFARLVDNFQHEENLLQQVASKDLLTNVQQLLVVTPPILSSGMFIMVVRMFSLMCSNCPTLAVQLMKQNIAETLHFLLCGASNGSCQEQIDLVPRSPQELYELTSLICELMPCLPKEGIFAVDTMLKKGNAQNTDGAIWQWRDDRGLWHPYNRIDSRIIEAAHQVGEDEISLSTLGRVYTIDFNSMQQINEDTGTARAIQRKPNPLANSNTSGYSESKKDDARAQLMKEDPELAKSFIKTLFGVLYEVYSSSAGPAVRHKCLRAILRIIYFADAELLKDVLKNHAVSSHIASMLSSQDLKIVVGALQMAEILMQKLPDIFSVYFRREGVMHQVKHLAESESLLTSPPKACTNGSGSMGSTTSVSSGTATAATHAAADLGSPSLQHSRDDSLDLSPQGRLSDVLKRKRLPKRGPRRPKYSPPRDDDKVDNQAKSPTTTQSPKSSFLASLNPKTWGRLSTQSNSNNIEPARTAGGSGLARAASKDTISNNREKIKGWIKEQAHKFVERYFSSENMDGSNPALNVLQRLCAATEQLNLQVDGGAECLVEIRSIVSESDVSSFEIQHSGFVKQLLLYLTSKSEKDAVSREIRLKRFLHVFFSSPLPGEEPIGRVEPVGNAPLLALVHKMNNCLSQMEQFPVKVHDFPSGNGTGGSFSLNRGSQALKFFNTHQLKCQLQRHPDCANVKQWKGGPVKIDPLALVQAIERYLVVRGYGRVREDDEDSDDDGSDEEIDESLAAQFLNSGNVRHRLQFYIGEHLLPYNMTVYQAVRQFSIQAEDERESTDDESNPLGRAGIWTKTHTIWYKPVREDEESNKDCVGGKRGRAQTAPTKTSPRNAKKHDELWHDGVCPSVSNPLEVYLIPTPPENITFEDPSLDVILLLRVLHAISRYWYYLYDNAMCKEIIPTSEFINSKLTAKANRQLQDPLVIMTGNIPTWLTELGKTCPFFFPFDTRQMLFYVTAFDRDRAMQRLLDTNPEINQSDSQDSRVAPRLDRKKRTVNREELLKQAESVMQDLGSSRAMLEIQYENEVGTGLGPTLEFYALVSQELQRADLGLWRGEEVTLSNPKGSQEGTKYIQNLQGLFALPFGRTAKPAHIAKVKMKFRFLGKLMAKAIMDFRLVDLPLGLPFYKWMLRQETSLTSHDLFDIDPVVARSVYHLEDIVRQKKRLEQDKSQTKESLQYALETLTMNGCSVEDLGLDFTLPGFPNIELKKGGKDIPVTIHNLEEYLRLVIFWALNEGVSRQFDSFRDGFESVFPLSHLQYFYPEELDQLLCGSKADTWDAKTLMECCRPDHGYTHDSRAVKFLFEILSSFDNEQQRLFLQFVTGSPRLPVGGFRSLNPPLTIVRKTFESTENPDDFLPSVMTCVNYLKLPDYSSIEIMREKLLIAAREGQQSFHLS
UniProt Q13485: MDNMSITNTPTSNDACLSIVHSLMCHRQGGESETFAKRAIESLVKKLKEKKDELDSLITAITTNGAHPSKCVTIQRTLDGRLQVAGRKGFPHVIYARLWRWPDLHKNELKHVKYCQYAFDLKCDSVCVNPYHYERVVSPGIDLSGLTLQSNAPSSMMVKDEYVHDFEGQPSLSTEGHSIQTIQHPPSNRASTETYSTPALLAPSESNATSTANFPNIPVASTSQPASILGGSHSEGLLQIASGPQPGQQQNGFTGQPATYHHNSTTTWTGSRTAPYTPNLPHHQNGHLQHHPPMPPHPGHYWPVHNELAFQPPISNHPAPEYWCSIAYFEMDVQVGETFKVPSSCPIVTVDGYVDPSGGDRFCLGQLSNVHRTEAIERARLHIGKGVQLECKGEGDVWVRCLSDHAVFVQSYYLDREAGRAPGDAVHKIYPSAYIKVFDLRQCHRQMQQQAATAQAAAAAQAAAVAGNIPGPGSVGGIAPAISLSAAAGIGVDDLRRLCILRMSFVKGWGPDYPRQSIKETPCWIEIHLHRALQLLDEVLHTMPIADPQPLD

For the test, the target named is thyroid hormone receptor interactor protein 12 (TRIP12), endogenous (human (endogenous in HCT116 and HEK293T)) (UniProt Q14669). Put plainly: co-IP; IP of endogenous TRIP12 with the antibody used for proteomics from HEK293T lysates, Western blot. Background: In western blotting, separated proteins are transferred to a membrane and probed.

These are yes or no findings as the source states them, for the method shown. Binding seen in cells or lysates may run through a third protein. Some binding calls cover weakened binding; strength is not graded here.

“SMAD4, endogenous (from UniProt Q13485 1-552)”: the binding result was “binds”.
